“And” between values parts separate entries of the source, which are not always exact repeats. Equal values may be shown once. Among all 400,000 compounds or so, about 3,700 (0.93%) were called active. The shares of active, inactive and inconclusive entries below differ from those in the screen. Calls come from the whole dose curve; as a rule, active = well fitted inhibition curve with a large enough effect; inconclusive = small, poorly fitted or top-dose-only effect, or another doubt; inactive = no such curve, though single readings can be large or run the other way. A potency beside an inconclusive call is a rough fit, not a confirmed value. A structure can be active in one record and inactive in another.
molecular target: Vitamin D3 receptor (Homo sapiens) (UniProt P11473); test: Inhibitors of the vitamin D receptor (VDR): qHTS; conditions: VDR-SRC2-3 peptide fluorescence polarization, 2 h; max response, negative = inhibition: active compounds read low
Outline: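 Two reagent solutions held at 4 deg C in the dark were dispensed, compounds pinned at 23 nl, and the mixture incubated 2 h at room temperature. Read-out: fluorescence polarization of VDR–SRC2-3 peptide binding.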
% is set by controls: 0 for no effect and ±100 for the full control effect; potency is the fitted concentration of half-maximal effect.

Amino acid sequences for entries named in this document (tags omitted). A change or cut given only in a name is not applied to a line headed by its entry.
UniProt P11473: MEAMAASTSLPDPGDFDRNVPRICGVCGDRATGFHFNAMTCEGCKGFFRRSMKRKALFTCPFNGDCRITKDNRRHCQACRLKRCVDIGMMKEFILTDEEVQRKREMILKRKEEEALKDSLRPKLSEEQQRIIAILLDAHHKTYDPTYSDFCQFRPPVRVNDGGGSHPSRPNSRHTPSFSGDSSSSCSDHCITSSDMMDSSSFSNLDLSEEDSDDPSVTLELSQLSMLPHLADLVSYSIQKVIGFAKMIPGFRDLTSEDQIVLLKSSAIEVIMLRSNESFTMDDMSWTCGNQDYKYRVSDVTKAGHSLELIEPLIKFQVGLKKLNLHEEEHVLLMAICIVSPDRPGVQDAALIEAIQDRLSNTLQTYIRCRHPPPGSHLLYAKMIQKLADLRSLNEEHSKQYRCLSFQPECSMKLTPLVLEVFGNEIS

Max response, negative = inhibition, inactive:
Cc1nc(-c2ccc(C)c(S(=O)(=O)N3CCC(C(=O)NCc4ccc(F)cc4)CC3)c2)no1 1.59%
COc1ccc(NC(=O)CN(C)CC(=O)NC2CCCCC2C)cc1 (configuration not stated) -11.9%
COC1CCN(Cc2c(C(=O)N3CCc4ccccc4C3)nc3ccc(Cl)cn23)CC1 6.73%
COc1ccc(C(=O)N2CCC3(CCCN(C(=O)Nc4cccc(F)c4)C3)CC2)cc1 -7.86%
CN(C)C(=O)c1ccc(-c2ccc3ncnc(N4CCC(C(=O)O)CC4)c3c2)cc1 1.63%
O=C(Cn1c(=O)n(-c2ccccc2Cl)c(=O)c2sc3ccccc3c21)NC1CCCC1 7.24%
CNc1sc(C(=O)c2cccs2)c(N)c1-c1nc2ccccc2s1 2.07%
COc1ccccc1NC(=O)C(C)N(C)CC(=O)Nc1cccc2ccccc12 (configuration not stated) -10.6%
COc1cc(/C=C2\S/C(=N/S(=O)(=O)c3ccc(C)cc3)NC2=O)c([N+](=O)[O-])cc1OC -2.57%
COc1ccc(COC[C@H](C)[C@H](O)[C@@H](C)[C@H]2OC(=O)[C@@H]2C)cc1 -5.76% and -19.2%
CCCCSc1nc(CCC)cc(=O)[nH]1 7.7%
C=CCOc1cccc(C2C(C(=O)c3ccco3)=C(O)C(=O)N2CCN2CCOCC2)c1 (configuration not stated) 0.797%
Cc1ccc2[nH]c(=O)c(CN(Cc3nnnn3Cc3ccccc3)C3CCCC3)cc2c1 -4.93%
CC1=C(c2cccc(Cl)c2)S(=O)(=O)NC1=NCc1ccccc1C 8.53%
Cc1oc(S(=O)(=O)N2CCCCC2)cc1NC(=O)Nc1ccccc1 -19.9%
O=C1CC(=O)Nc2cc(S(=O)(=O)Nc3cccc(C(F)(F)F)c3)ccc2N1 -18.9%
CCN(C(=O)c1ccc(Cl)c(S(=O)(=O)Nc2c(C)n(C)n(-c3ccccc3)c2=O)c1)c1ccccc1 1.25%
CC1/C(=N/O)CC(c2ccco2)NC1c1ccco1 (configuration not stated) 7%
O=C(CCc1cn(Cc2ccccc2Cl)c2ccccc12)NC1CCCCC1 3.02%
CCC(=O)Nc1cccc(-c2nnc(SCC(=O)NCc3ccco3)n2C)c1 -18.6%
CC1Cc2ccccc2N1C(=O)c1cccnc1 (configuration not stated) -2.17%
CN(C)c1ccc(/C=N/NC(=O)C[n+]2ccccc2)cc1 18.5%
O=C(/C=C/c1ccc([N+](=O)[O-])cc1)N1CCN(Cc2ccccc2)CC1 5.12%
CCN(CC)CCCC1(CN)OCCc2ccccc21 (configuration not stated) 5.06%

3 successive entries already listed, quoted:
Max response, negative = inhibition, inactive:
CCCCSc1nc(CCC)cc(=O)[nH]1 7.7%
C=CCOc1cccc(C2C(C(=O)c3ccco3)=C(O)C(=O)N2CCN2CCOCC2)c1 (configuration not stated) 0.797%
Cc1ccc2[nH]c(=O)c(CN(Cc3nnnn3Cc3ccccc3)C3CCCC3)cc2c1 -4.93%

Following part.

Potency, active:
CCCCCCC(=O)N(O)C1CC(=O)N(c2ccc(C)cc2)C1=O (configuration not stated) 31.6 µM
CC(C)(C)c1nnc(NC(=O)c2ccc3c(c2)OCO3)s1 79.4 µM
Cn1c(/C(C#N)=C/c2ccc(C(F)(F)F)cc2)nc2ccccc21 28.2 µM
COC(=O)[C@@H]1[C@@H](C#N)C2(c3ccccc3-c3ccccc32)N(c2ccc(Cl)cc2)N1C#N 25.1 µM
C=C(CN(C)C)C(=O)c1cc(C)ccc1C 44.7 µM
Cc1nc2sccn2c(=O)c1CCN1CCC(=C(c2ccc(F)cc2)c2ccc(F)cc2)CC1 79.4 µM
COc1cc(C(C)=O)ccc1OCc1cn(CC(=O)c2ccc(O)cc2)nn1 89.1 µM

Potency, inconclusive:
Cc1ccc2c(c1)/C(=C/c1ccccc1)C(=O)N2 89.1 µM [inhibitor, single point]
CCC(NC(=O)OCc1ccccc1)C(=O)Oc1ccc2ccc(=O)oc2c1 (configuration not stated) 31.6 µM [inhibitor, partial curve, poor fit]
Cn1cccc1C(=O)NC(=O)COC(=O)c1ccc(S(C)(=O)=O)c([N+](=O)[O-])c1 28.2 µM [inhibitor, partial curve, poor fit]
Cc1cc(SCC(=O)Nc2ncc(Cl)cc2Cl)nc2ccccc12 89.1 µM [inhibitor, single point]
CCOC(=O)C(Oc1ccc2c(-c3ccccc3)cc(=O)oc2c1C)c1ccccc1 (configuration not stated) 89.1 µM [inhibitor, partial curve, poor fit]
O=C(Sc1ccc(Cl)cc1)c1ccccn1 56.2 µM [inhibitor, partial curve, poor fit]
CCCCC(=O)OCC(=O)[C@]1(O)Cc2c(O)c3c(c(O)c2[C@H](OC2CC(NC(=O)C(F)(F)F)C(O)C(C)O2)C1)C(=O)c1c(OC)cccc1C3=O (some centres not stated) 79.4 µM [inhibitor, partial curve, poor fit]
COc1ccc(/C=C/C(=O)c2cc3cccc(OC)c3oc2=O)cc1 39.8 µM [inhibitor, partial curve]
CCOC(=O)C1(Cc2cccc(Cl)c2)CCCN(C(=O)c2ccco2)C1 (configuration not stated) 39.8 µM [inhibitor, single point]
CN1CCN2c3ccccc3Cc3ccccc3C2C1 (configuration not stated) 39.8 µM [inhibitor, full curve] and 44.7 µM [inhibitor, partial curve, poor fit]
Cc1cc(/C=C2/NC(=O)NC2=O)c(C)n1-c1ccc(C#N)cc1 39.8 µM [inhibitor, single point]
CCCCCCCCOc1ccccc1C(=O)Nc1ccc(C(=O)OCC[N+](C)(CC)CC)cc1 35.5 µM [inhibitor, full curve]
CN(C)/C=C1/Nc2ccccc2C1=O 39.8 µM [inhibitor, full curve, poor fit]
O=C(c1ccco1)N1CCC[C@@]2(CCN(C(c3ccccc3)c3ccccc3)C2)C1 50.1 µM [inhibitor, partial curve]
CCOC(=O)N1CCN(Cc2nc(N)nc(Nc3ccc(Oc4ccccc4)cc3)n2)CC1 89.1 µM [inhibitor, single point]
Cc1ccc(-c2ccc(C(=O)NCc3ccc(Cl)cc3)o2)c2ccccc12 56.2 µM [inhibitor, partial curve, poor fit]
COc1ccc(NCC(=O)N/N=C/c2cc([N+](=O)[O-])ccc2N2CCCC2)cc1 39.8 µM [inhibitor, single point]
CC(C)CN1C(=O)c2ccc(C(=O)Nc3ccccc3C(=O)O)cc2C1=O 20 µM [inhibitor, single point]
CCc1ccc(NC(=O)CSc2nc3cc(C(=O)OC)ccc3c(=O)n2Cc2ccco2)cc1 7.94 µM [inhibitor, partial curve, poor fit]
O=c1[nH]c(/C=C\c2ccccc2F)nc(O)c1[N+](=O)[O-] 56.2 µM [inhibitor, partial curve, poor fit]
COc1cc(SC)ccc1C(=O)OCc1nc2ccsc2c(=O)[nH]1 79.4 µM [inhibitor, single point]
COc1ccc2c(c1)C(c1ccccc1OC)CC(=O)O2 (configuration not stated) 70.8 µM [inhibitor, partial curve]
CC(=O)Oc1ccc2c(c1)C(=O)c1ccccc1C2=O 89.1 µM [inhibitor, partial curve]
O=C(COC(=O)C1CCCN1C(=O)c1cccs1)c1ccccc1 (configuration not stated) 89.1 µM [inhibitor, single point]
CCc1cccc(NC2c3ccccc3C(=O)N2c2cccnc2)c1 (configuration not stated) 100 µM [inhibitor, partial curve, poor fit]
CCc1nc(SCC(=O)c2ccc(C)c(C)c2)n[nH]1 39.8 µM [inhibitor, partial curve, poor fit]
O=C(Nc1ccccc1)N[C@H]1C[C@H](C(=O)O)Nc2cc(Cl)cc(Cl)c21 63.1 µM [inhibitor, single point] and 56.2 µM [inhibitor, partial curve, poor fit]
O=C(Nc1ccc(NC(=O)C2CC2)nc1)c1ccccn1 11.2 µM [inhibitor, partial curve, poor fit]
O=C(N[C@@H]1CCC(=O)N(CC[C@H](Oc2ccccc2)c2ccccc2)CC1)OCc1ccccc1 89.1 µM [inhibitor, single point]
COc1ccc2[nH]c(=S)cc(C)c2c1 89.1 µM [inhibitor, partial curve, poor fit]
COc1cccc(/C=C/C(=O)c2cccc([N+](=O)[O-])c2)c1 35.5 µM [inhibitor, single point]
CCN(CC)c1ccc(C=C2SC(=S)NC2=O)cc1 89.1 µM [inhibitor, single point]
COC(=O)c1ccccc1NC(=O)c1nc(S(=O)(=O)Cc2cccc(C)c2)ncc1Cl 2.82 µM [inhibitor, full curve]
O=C(CCSCc1cccc(F)c1)NCc1ccc(F)cc1 79.4 µM [inhibitor, partial curve, poor fit]
CCn1c(SCC(=O)N/N=C(\C)c2ccco2)nnc1-c1ccccc1 5.01 µM [inhibitor, partial curve, poor fit]
COC(=O)N/N=C/c1cc(C)n(-c2cccc3ccccc23)c1C 89.1 µM [inhibitor, partial curve, poor fit]

Reference: PubChem BioAssay AID504847 (National Center for Advancing Translational Sciences (NCATS), 2011)
